# Test results: the supplement of paper PMC10077471
# Over roughly 1,900 compounds, “excess over highest single agent (ExcessHSA) synergy score, 6x6 matrix” has its median near -83; the lowest 2% begin near -370. The list shows a part of the results.
# Test system: NCI-H446
# Assay: excess over highest single agent (ExcessHSA) synergy score, 6x6 matrix; higher = less synergy (more negative = stronger synergy)
# Details: 72 h; CellTiter-Glo viability
row,Structure (SMILES),excess over highest single agent
1,C[C@@]1(c2cc(-c3cncnc3)c(F)cc2F)CCSC(N)=N1 + Cc1sc2c(c1C)C(c1ccc(Cl)cc1)=N[C@@H](CC(=O)OC(C)(C)C)c1nnc(C)n1-2 [NCGC00250412-19],55.3
2,c1ccc2[nH]c(-c3cscn3)nc2c1 + Cc1sc2c(c1C)C(c1ccc(Cl)cc1)=N[C@@H](CC(=O)OC(C)(C)C)c1nnc(C)n1-2 [NCGC00250412-19],-241
3,Cn1cc(-c2ccc3nnc(C(F)(F)c4ccc5ncccc5c4)n3n2)cn1 + Cc1sc2c(c1C)C(c1ccc(Cl)cc1)=N[C@@H](CC(=O)OC(C)(C)C)c1nnc(C)n1-2 [NCGC00250412-19],-69.2
4,O=C(Nc1ncc(-c2cc(C(F)F)nn2-c2c(Cl)cccc2Cl)s1)C1CC1 + Cc1sc2c(c1C)C(c1ccc(Cl)cc1)=N[C@@H](CC(=O)OC(C)(C)C)c1nnc(C)n1-2 [NCGC00250412-19],-206
5,CNC(=O)Nc1ccc(-c2nc(N3CC4CCC(C3)O4)c3cnn(C4CCC5(CC4)OCCO5)c3n2)cc1 + Cc1sc2c(c1C)C(c1ccc(Cl)cc1)=N[C@@H](CC(=O)OC(C)(C)C)c1nnc(C)n1-2 [NCGC00250412-19],-274
6,CN1CC2c3ccccc3Oc3ccc(Cl)cc3C2C1 (stereo not given) + Cc1sc2c(c1C)C(c1ccc(Cl)cc1)=N[C@@H](CC(=O)OC(C)(C)C)c1nnc(C)n1-2 [NCGC00250412-19],-289
7,COC1=C2C[C@@H](C)C[C@H](OC)[C@H](O)[C@@H](C)/C=C(\C)[C@H](OC(N)=O)[C@@H](OC)/C=C\C=C(/C)C(=O)NC(=CC1=O)C2=O + Cc1sc2c(c1C)C(c1ccc(Cl)cc1)=N[C@@H](CC(=O)OC(C)(C)C)c1nnc(C)n1-2 [NCGC00250412-19],-170
8,COc1ccc(-c2cc(=O)c3c(O)cc(O[C@@H]4O[C@H](CO[C@@H]5O[C@@H](C)[C@H](O)[C@@H](O)[C@H]5O)[C@@H](O)[C@H](O)[C@H]4O)cc3o2)cc1O + Cc1sc2c(c1C)C(c1ccc(Cl)cc1)=N[C@@H](CC(=O)OC(C)(C)C)c1nnc(C)n1-2 [NCGC00250412-19],-123
9,COc1cc(Nc2ncc(F)c(Nc3ccc4c(n3)N(COP(=O)(O)O)C(=O)C(C)(C)O4)n2)cc(OC)c1OC + Cc1sc2c(c1C)C(c1ccc(Cl)cc1)=N[C@@H](CC(=O)OC(C)(C)C)c1nnc(C)n1-2 [NCGC00250412-19],-95.5
10,CCCCCCCN(CC)CCCC(O)c1ccc(NS(C)(=O)=O)cc1 (stereo not given) + Cc1sc2c(c1C)C(c1ccc(Cl)cc1)=N[C@@H](CC(=O)OC(C)(C)C)c1nnc(C)n1-2 [NCGC00250412-19],19

# Quoted at random: 2 records from the list.
row,Structure (SMILES),excess over highest single agent
7,COC1=C2C[C@@H](C)C[C@H](OC)[C@H](O)[C@@H](C)/C=C(\C)[C@H](OC(N)=O)[C@@H](OC)/C=C\C=C(/C)C(=O)NC(=CC1=O)C2=O + Cc1sc2c(c1C)C(c1ccc(Cl)cc1)=N[C@@H](CC(=O)OC(C)(C)C)c1nnc(C)n1-2 [NCGC00250412-19],-170
2,c1ccc2[nH]c(-c3cscn3)nc2c1 + Cc1sc2c(c1C)C(c1ccc(Cl)cc1)=N[C@@H](CC(=O)OC(C)(C)C)c1nnc(C)n1-2 [NCGC00250412-19],-241
